Experimental data as given in patent US20230234920A1, “Azirine Containing Compounds as Anti-Angiogenesis Agents and a Process for the Preparation Thereof” (COUNCIL OF SCIENTIFIC & INDUSTRIAL RESEARCH, priority 2020, published 2023).
Some entries share one result that the patent states for a list of compounds. At least one compound was matched to its structure with a doubt left.

System: HUVECs
Assay: Capillary-like tube formation assay (tubulogenesis)
Type: cell-based, human
Details: 250 nM, 6 h
Protocol: FIG. 2 represents effect of Compound 1 on capillary tube formation of HUVECs. Endothelial cells in Matrigel were incubated with ECM basal medium in the presence of compound 1 at the indicated concentrations for 6 h. Cell viability was assessed by Calcein-AM dye added few min. before the completion of 6 h. then photographs at 10×magnification were taken using an inverted microscope. The tubule length of HUVECs was quantified by Leica QWin software. Tubule network formation is expressed as a percentage of that vehicle (0.1% DMSO) treated cells (control).
FIG. 9 represents effect of racemic mixture (chiral isomer 1-1 and chiral isomer 2-1) of Compound 1 on capillary tube formation of HUVECs. Endothelial cells seeded in matrigel were incubated at the indicated concentrations of compound 1 racemic mixtures (1-1 and 2-1) with ECM basal medium for 6 h. […] The tubular structures of HUVECs were measured using Leica QWin software and tubulogenesis was expressed as a % of that vehicle (0.1% DMSO) treated cells (control) well.
HUVEC cells were incubated with or without sunitinib (20 nM) for 6 h at indicated concentrations of chiral isomers of Compound 1 (1-1 and 2-1). […] The tubule length of HUVECs was quantified by Leica QWin software represented as a % of that vehicle (0.1% DMSO) treated cells (control) well. […]

`CCOC(=O)[C@H]1N=C1CCc1ccc(OC)cc1` [Chiral isomer (1-1)] was tested, and the tubule formation (listed as chiral isomer (1-1)) was 80-90%.
For `CCOC(=O)[C@H]1N=C1CCc1ccc(OC)cc1` [chiral isomer (2-1)], the tubule formation (listed as isomer (2-1)) was 80-90%.
